# PubChem BioAssay AID1053208 – Peter MacCallum Cancer Centre – 2014
# Aim: 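Find knock-downs that sensitise mouse osteosarcoma cells to doxorubicin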 (primary screen)
# System: mouse osteosarcoma cells, early-passage culture from an engineered mouse model of fibroblastic bone tumour
# Reagent: siRNA pool against mouse genes, 40 nM
# Duration: about 120 h (48 h before drug, then 72 h with drug)
# Challenge: doxorubicin 100 nM for 72 h, roughly 30-40% inhibitory dose
# Detection: 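Luminescent ATP signal taken as viability with or without 100 nM doxorubicin for 72 h; mean of two wells set against non-targeting siRNA and turned into robust z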
# Reading the numbers: viability z-score with doxorubicin and doxorubicin viability vs non-targeting: higher = more viable cells under doxorubicin; viability z-score without drug: higher = more viable cells with knock-down alone; z-score of drug to no-drug ratio: higher = less drug sensitisation by knock-down
# Hit rule: 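a pool counts as active when its viability z-score with doxorubicin is -2 or below and its z-score without drug lies between -2 and 2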
# In all, the deposit lists about 17,000 reagents; shown is an unselected part. 788 of them (4.7%) were called active. 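Calls rest on z-score classes alone; an extra cut-off of viability at most 70% of control was not applied to them.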 Reagents against one gene are numbered here.
gene,pool no.,combined z-score class,viability z-score with doxorubicin,viability z-score without drug,z-score of drug to no-drug ratio,doxorubicin viability vs non-targeting,outcome
Ren2 (GeneID 19702),1,no change with or without drug,-0.45,-1.18,0.45,0.9,inactive
Ccar1 (GeneID 67500),1,no change with or without drug,-0.9,0.51,-1.12,0.86,inactive
Vti1b (GeneID 53612),1,high cell count without drug only,-1.12,2.7,-2.47,0.84,inactive
Exo5 (GeneID 73172),1,no change with or without drug,-0.34,-1.18,0.56,0.91,inactive
Npvf (GeneID 60531),1,no change with or without drug,0,-1.18,1.01,0.94,inactive
Ramp1 (GeneID 51801),1,no change with or without drug,0.9,-0.17,1.24,1.02,inactive
Gnb4 (GeneID 14696),1,high cell count without drug only,0.67,2.87,-1.01,1,inactive
Hspb1 (GeneID 15507),1,no change with or without drug,0.11,-0.17,0.34,0.95,inactive
Fcrl1 (GeneID 229499),1,no change with or without drug,-1.46,-1.18,-0.67,0.81,inactive
Tectb (GeneID 21684),1,no change with or without drug,-1.57,-1.52,-0.56,0.8,inactive
Fbxo32 (GeneID 67731),1,no change with or without drug,0.67,1.18,0,1,inactive
Mos (GeneID 17451),1,no change with or without drug,-0.67,1.35,-1.46,0.88,inactive
Aktip (GeneID 14339),1,no change with or without drug,-1.57,-1.52,-0.56,0.8,inactive
Bahcc1 (GeneID 268515),1,low cell count without drug only,0.22,-6.91,8.99,0.96,inactive
Apol10a (GeneID 245282),1,no change with or without drug,-0.56,0.17,-0.56,0.89,inactive
Abl1 (GeneID 11350),1,no change with or without drug,0.34,-0.17,0.56,0.97,inactive
Mitf (GeneID 17342),1,no change with or without drug,-0.22,1.01,-0.79,0.92,inactive
Krt34 (GeneID 16672),1,no change with or without drug,-1.69,-1.18,-0.9,0.79,inactive
Ccdc186 (GeneID 213993),1,no change with or without drug,0.45,0.51,0.22,0.98,inactive
Jrkl (GeneID 77532),1,no change with or without drug,0.67,0.34,0.56,1,inactive
5730493B19Rik (GeneID 70630),1,no change with or without drug,-0.22,0.84,-0.67,0.92,inactive
Chst3 (GeneID 53374),1,no change with or without drug,-0.34,1.52,-1.12,0.91,inactive
Agtr1a (GeneID 11607),1,no change with or without drug,0.9,0.51,0.67,1.02,inactive
Ebna1bp2 (GeneID 69072),1,low cell count with and without drug,-3.15,-2.19,-2.02,0.66,inactive
Pura (GeneID 19290),1,no change with or without drug,-1.35,0.34,-1.46,0.82,inactive
Hspa4l (GeneID 18415),1,no change with or without drug,1.24,0.17,1.24,1.05,inactive
Smr3a (GeneID 20599),1,no change with or without drug,0.11,0.51,-0.11,0.95,inactive
Smr3a (GeneID 20599),2,no change with or without drug,-0.45,0.84,-0.9,0.9,inactive
Rsph6a (GeneID 83434),1,no change with or without drug,-0.45,1.69,-1.35,0.9,inactive
Hpgd (GeneID 15446),1,no change with or without drug,0.79,1.52,-0.11,1.01,inactive
Abr (GeneID 109934),1,no change with or without drug,1.01,1.52,0.11,1.03,inactive
Cd226 (GeneID 225825),1,no change with or without drug,0.34,1.52,-0.56,0.97,inactive
Cep41 (GeneID 83922),1,no change with or without drug,-0.67,-0.17,-0.45,0.88,inactive
Atg4d (GeneID 235040),1,no change with or without drug,-0.67,0.17,-0.67,0.88,inactive
Tmie (GeneID 20776),1,high cell count with doxorubicin only,2.02,1.85,0.9,1.12,inactive
Abcd3 (GeneID 19299),1,no change with or without drug,0,-0.17,0.22,0.94,inactive
Btla (GeneID 208154),1,no change with or without drug,-0.45,0.51,-0.67,0.9,inactive
Plag1 (GeneID 56711),1,high cell count with doxorubicin only,2.02,0.84,1.57,1.12,inactive
Mcm8 (GeneID 66634),1,no change with or without drug,-1.12,-1.85,0.22,0.84,inactive
Gjd3 (GeneID 353155),1,no change with or without drug,0,0.84,-0.45,0.94,inactive
Slc22a4 (GeneID 30805),1,no change with or without drug,-0.67,0.17,-0.67,0.88,inactive
Cep89 (GeneID 72140),1,no change with or without drug,0,0.17,0,0.94,inactive
Il22ra1 (GeneID 230828),1,no change with or without drug,-0.9,-1.52,0.22,0.86,inactive
Smo (GeneID 319757),1,no change with or without drug,-0.45,-1.52,0.79,0.9,inactive
Pim3 (GeneID 223775),1,no change with or without drug,-0.45,-0.17,-0.22,0.9,inactive
Ngrn (GeneID 83485),1,no change with or without drug,1.12,1.18,0.45,1.04,inactive
Crygc (GeneID 12966),1,no change with or without drug,0.11,0.84,-0.34,0.95,inactive
2210409E12Rik (GeneID 72381),1,high cell count without drug only,-0.34,3.88,-2.36,0.91,inactive
Sobp (GeneID 109205),1,no change with or without drug,-0.79,0.17,-0.79,0.87,inactive
Kdm6a (GeneID 22289),1,no change with or without drug,0.67,0.34,0.56,1,inactive
